# Laboratory results published in PubChem BioAssay AID1259415 (National Center for Advancing Translational Sciences (NCATS), 2018).
# Screen size: about 410,000 compounds; about 18,000 (4.4%) were called active. Inconclusive means that the source gave no clear call. Such entries were picked first, then a sample of the others. No stated cut-off is given here; in the data, active means activity change below about -60%; inconclusive means no clear call, values can overlap the other calls; inactive means above about -39%.
# Test: qHTS Assay for inhibitors of the human cytomegalovirus (HCMV)
# Details: HFF cells, HCMV-luciferase reporter, 72 h; at 57.5 µM; stronger effect = lower value
# Summary of the method: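 HFF cells seeded 16 h at 37C, treated with compounds, infected with luciferase-reporter HCMV at MOI 1 PFU/cell; luciferase read at 72 h post infection, normalized to buffer-only and Salinomycin controls.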
# On the % scale 0 is the no-effect control and ±100 the full control effect.
row,SMILES,"activity change, negative = inhibition"
1,CC(C)(C)NC(=O)C1(C)CCC(=O)N1CCCn1ccnc1 (centres undefined),inconclusive: -44%
2,Cc1cccc(C)c1NC(=O)Nc1nnc([C@H]2C[C@H](O)[C@@H](CO)O2)s1,inactive: 6.59%
3,Cc1ccc(S(=O)(=O)Oc2cccc(/C=N/Nc3ccc(C(=O)O)cc3)c2)cc1,inactive: 0%
4,COc1cc(/C=C(/C#N)C(=O)NCCc2c[nH]c3ccccc23)ccc1OCc1ccccc1F,inconclusive: -54.9%
5,Fc1cccc(-c2n[nH]c(=S)n2-c2ccccc2)c1,inactive: 11%
6,CCOC(=O)/C(=N/Nc1ccccc1)N1CCCc2ccccc21,active: -63.1%
7,CCOC(=O)N1CCC(NC(=O)c2cc3c(C)nc4ccccc4c3o2)CC1,inconclusive: -43.1%
8,C=CCn1c(O)c(N=NC(=S)Nc2ccc(OC)c(Cl)c2)c2ccccc21,inconclusive: -59.3%
9,Fc1ccc(N2Cc3ccsc3C=N2)cc1,inconclusive: -43.3%
10,O=S(=O)(c1ccc(-c2cc(C(F)(F)F)on2)s1)N1CCN(c2ccccc2F)CC1,inconclusive: -53.3%
11,Cc1ccc(NC(=S)N(CCC(C)C)C(C)c2ccncc2)c(Cl)c1 (centres undefined),inconclusive: -43.9%
12,COc1cc2c3cc1Oc1cc(ccc1O)C[C@@H]1c4c(cc(OC)c(O)c4Oc4cccc(c4)C[C@@H]3N(C)CC2)CC[N+]1(C)C,inconclusive: -43%
13,COc1ccc(/C=C2\Sc3ccc(C(=O)NCC4CCCO4)cc3N(C)C2=O)cc1 (centres undefined),inconclusive: -45.3%
14,Cc1ccc(NC(=O)CSc2ccccc2)cc1S(=O)(=O)N1CCCCC1,inconclusive: 0%
15,CCc1ccc(-n2c(=O)c3c4c(sc3n(CC(=O)c3ccc(F)cc3)c2=O)CCC4)cc1,active: -87.8%
16,CCC(C)NC(=O)CCCN1C(=O)CCn2nc(-c3cccn3C)cc21 (centres undefined),inactive: 9.46%
17,CCCN1Cc2cccc(C(=O)Nc3ccc(OC)c(OC)c3)c2C1=O,inconclusive: -48.5%
18,CCCc1cc(=O)[nH]c(SCC(=O)NC(=O)OCC)n1,inconclusive: -42.4%
19,Cc1cc(C)cc(NC(=O)NCCc2c(C)nn(C)c2C)c1,inactive: -2.11%
20,COc1ccc(CCNC(=O)CCc2cn(C)c3ccccc23)c(OC)c1OC,inconclusive: -43.1%
21,CCc1ccc(C(=O)c2cn(CC(=O)Nc3ccc4c(c3)OCO4)c3ccc(CC)cc3c2=O)cc1,active: -88.2%
22,Cc1cc(N2CCC(C)CC2)nc(-c2ccccc2O)n1,inactive: -29.3%

row,SMILES,"activity change, negative = inhibition"
1,Cc1cc(Cl)ccc1OCC(=O)NC1CCCC1,active: -74.4%
2,O=S(=O)(c1ccc(F)c(F)c1F)N1CCN(C(=S)NC2CC3CCC2C3)CC1 (centres undefined),inconclusive: -52.5%
3,CCN(CC)CCCNc1oc(/C=C/c2ccc(OC)c(OC)c2)nc1C#N,inconclusive: -45.5%
4,CCOC(=O)C1=C(CN2CCN(c3ccc(OC)cc3)CC2)NC(=O)NC1c1ccc(OC)cc1 (centres undefined),inactive: -25.6%
5,O=C(Cn1nc(-c2ccccc2)ccc1=O)N1CCC2(CC1)OCCO2,inconclusive: -42.7%
6,Cc1ccc(Nc2nc3nonc3nc2Nc2cccc(C(F)(F)F)c2)cc1Cl,active: -99.6%
7,Cc1ccc(C)c(N(C)C(=O)CCS(=O)(=O)c2cccc3nonc23)c1,inconclusive: -47.6%
8,CCCn1nc(C(=O)Nc2cc(OCC)c(N3CCOCC3)cc2OCC)c2ccccc2c1=O,active: -92.4%
9,CCN(CC)C(=O)Cn1c(=O)cc(C)c2c(C)nn(-c3cccc(Cl)c3C)c21,inactive: -20.7%
10,CC(OC(=O)c1ccccc1Oc1ccccc1)C(=O)NC1CC1 (centres undefined),inconclusive: -45%
11,CC(C)C(NC(=O)/C(=C/c1ccco1)NC(=O)c1ccc(Br)o1)C(=O)O (centres undefined),inconclusive: -45.7%
12,NNC(=O)c1ccccc1OCc1ccccc1,inconclusive: -40.8%
13,O=C1CNC(=O)c2c(nc3n2CCC3)N1,inconclusive: -41.2%
14,O=C(COc1ccccc1)Nc1cccc2nsnc12,inactive: 49.9%
15,CN(C)S(=O)(=O)c1cccc(NC(=O)COC(=O)c2cc3ccccc3oc2=O)c1,inactive: -33%
16,Cc1cc(C)c(Nc2nc3ccccc3n3c(C)nnc23)c(C)c1,inactive: -29.9%
17,Cc1nn(-c2ccccc2)c(NC(=O)c2ccccc2)c1Br,inconclusive: -44.6%
18,COc1ccc(-c2cc3c(c4c2ccn4C)C2CCC3C2)cn1 (centres undefined),inconclusive: -45.7%
19,COc1ccc2c(c1OC)C(=O)N1N=C(c3ccc(Cl)cc3)CC21 (centres undefined),inconclusive: -57.6%
20,NC(=O)c1ccc(NC(=O)CCC(=O)N2CCN(S(=O)(=O)c3ccc(Cl)cc3)CC2)cc1,inactive: 0%
21,CCOC(=O)C1CCCN1C(=O)c1ccc(OC)c(Br)c1 (centres undefined),inconclusive: -47.1%
22,c1ccc(Cn2nnnc2C(c2cccs2)N2CCCCCC2)cc1 (centres undefined),inconclusive: -45%

# Grouped by structure: the entries above with a cyano group.
row,SMILES,"activity change, negative = inhibition"
4,COc1cc(/C=C(/C#N)C(=O)NCCc2c[nH]c3ccccc23)ccc1OCc1ccccc1F,inconclusive: -54.9%
3,CCN(CC)CCCNc1oc(/C=C/c2ccc(OC)c(OC)c2)nc1C#N,inconclusive: -45.5%
